# Source: patent US20200016134A1, “COMPOSITIONS AND METHODS FOR TREATING SUBSTANCE ABUSE DISORDERS” (EMBERA NEUROTHERAPEUTICS, INC., priority 2016, published 2020)
# Some results were stated once for a whole list of compounds, not compound by compound.
# Tested on: adult male Wistar rats
# Test: Intravenous cocaine self-administration under a multiple, alternating schedule of food reinforcement and cocaine self-administration
# Type: in vivo, rat
# Settings: FIG. 1B; high dose alone: metyrapone 25-175 mg/kg ip, oxazepam 5-80 mg/kg ip
compound,measurement,value
CC(C)(C(=O)c1cccnc1)c1cccnc1 [metyrapone],cocaine self-administration as percentage of baseline self-administration,less than 50%
